# PubChem BioAssay AID2685 (National Center for Advancing Translational Sciences (NCATS), 2010)
# The other results are listed elsewhere or left out. Shown are side measurements of this screen, not its main read-out; they come without a call. Compounds called inactive in the main read-out are mostly missing here. The note in brackets gives the kind of curve behind each potency; many fits are weak.
# Experiment: qHTS Assay for Lipid Storage Modulators in Drosophila S3 Cells;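 for cell number change: cells counted by Cell Tracker Red CMTPX staining in the red channel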
# Conditions: BODIPY lipid droplet fluorescence, 18-24 h; for cell number change: measured here: cell count max response, cells fed with added oleic acid
# Summary of the method: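 Drosophila S3 cells loaded with oleic acid (400 uM, as added) and compounds at several concentrations; lipid droplets imaged by 488-nm laser-scanning cytometry, 500–530 nm intensity and object ratio to cell channel. Percent activity normalized to 20 uM Triacsin C.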
# [1] = measured here: lipid fluorescence (Fed channel) AC50, cells fed with added oleic acid
# [2] = measured here: cell number channel AC50, cells fed with added oleic acid
Compound,cell number change [%],AC50 [1],AC50 [2]
COCCC(=O)N1CCC(Oc2ccc(C(=O)N3CCCC(COC)C3)cc2)CC1 (stereo unspecified),5.25,"18.4 µM [rising, partial curve, poor fit]",–
COc1cc(NC(=O)C2CC(c3cccc(OC)c3OC)=NO2)cc(OC)c1OC (stereo unspecified),–,–,"5.17 µM [rising, single point]"
Nc1cc(-c2ccc(Br)cc2)nn1S(=O)(=O)c1cccc2nsnc12,–,"0.731 µM [falling, single point]",–
COc1ccc2cc(CCNC(=O)C(C)C)c(=O)[nH]c2c1,–,"0.0731 µM [rising, single point]",–
COc1ccc(C2=NS(=O)(=O)N(C)C(C(=O)NC(C)c3ccccc3)=C2)cc1OC (stereo unspecified),-19.3,"25.9 µM [falling, partial curve, poor fit]",–
Cc1cc(-c2nnc(SCc3ccccn3)o2)no1,7.52,"2.31 µM [rising, partial curve]",–
O=C1CCCC2=C1C1(CCCCC1)N=C(Nc1nc3ccccc3o1)N2,-26.3,"18.4 µM [falling, partial curve]",–
CCc1cc[n+](C2=C([O-])c3ccccc3C(=O)/C2=N\S(=O)(=O)c2cccs2)cc1,–,"16.4 µM [falling, single point]",–
COc1ccc(CNC(=S)N/N=C(\C)c2ccc(OC)cc2)cc1,4.68,–,–
COCCNC(=O)CN(C(=O)CCC(=O)Nc1ccccn1)c1ccc(F)c(Cl)c1,10.3,–,–
CC(=O)c1ccc(NC(=O)CSc2nnc(-c3ccncc3)n2C2CC2)cc1,-30,"29.1 µM [falling, single point]","32.6 µM [falling, single point]"
O=c1[nH]n(-c2cccc(Cl)c2)c2ncccc12,17.1,"5.17 µM [rising, partial curve, poor fit]",–
Cc1nnc(NC(=O)CSc2nnc(CNC(=O)c3ccc(F)cc3)o2)s1,7.77,–,–
CCc1cc2c(=O)c(-c3nc4ccccc4n3C)c(COCC(=O)O)oc2cc1O,-11.2,–,–
COc1cccc(NC(=S)N2CCn3cccc3C2c2cccnc2)c1 (stereo unspecified),–,"0.58 µM [rising, single point]",–
COc1ccc(N(C(=O)c2snc(C(N)=O)c2N)C(C(=O)NC2CCCC2)c2cccs2)cc1OC (stereo unspecified),-15.2,"29.1 µM [falling, single point]",–
c1ccc2c(c1)CC1(CCCC1)N=C2N1CCOCC1,8.77,"6.51 µM [falling, single point]",–
CC(CC#CCN1CCOCC1)OCCC#N (stereo unspecified),-9.27,–,–
O=C(c1ccccc1)N1CCN(S(=O)(=O)N2CCOCC2)CC1,-1.25,"6.51 µM [rising, single point]",–
CCCCN(Cc1ccco1)C(=O)C1CCCN(c2ncnc3c2nc2n3CCCCC2)C1 (stereo unspecified),-23.6,"23.1 µM [rising, single point]",–
N#Cc1cc2c(cc1NC(=O)CCn1cnnn1)OCO2,0.989,"6.51 µM [rising, single point]",–

Compound,cell number change [%],AC50 [1],AC50 [2]
CCNC(=O)N1C(=O)C2(OCCO2)c2ccccc21,-44.1,"0.00411 µM [falling, full curve, poor fit]","11.6 µM [falling, partial curve]"
Cn1ccnc1SCC(=O)c1cc2ccccc2o1,-1.21,–,–
N=c1c2c3c(sc2ncn1CCCO)CCCC3,24.1,"4.11 µM [falling, single point]",–
COc1nc(-c2ccccc2)ccc1-c1noc(COc2ccccc2)n1,77.1,"3.66 µM [rising, partial curve]","29.1 µM [rising, single point]"
Cc1cc(N)n2ncc(-c3ccc(F)cc3)c2n1,57.3,"29.1 µM [rising, single point]","3.26 µM [rising, full curve]"
Cc1ccc2[nH]c(=O)c(CN(Cc3cccs3)C(=S)NCC3CCCO3)cc2c1 (stereo unspecified),20.3,"0.164 µM [rising, full curve, poor fit]",–
O=C1CCCc2c1cc(-c1ccccc1)n2-c1ccccc1,10.5,"0.651 µM [falling, single point]",–
CCc1c(C(=O)NNC(=S)Nc2ccc(S(=O)(=O)Nc3ncccn3)cc2)csc1C,19.4,"4.11 µM [rising, partial curve, poor fit]",–
CCN(C(=O)C(C)N1C(=O)/C(=C/c2ccco2)SC1=S)C1CCS(=O)(=O)C1 (stereo unspecified),4.58,"20.6 µM [rising, single point]",–
O=C(O)CSc1nc2ccc(Cl)cc2[nH]1,37.5,–,"0.231 µM [rising, full curve]"
Cc1ccccc1NC(=O)NCc1ccco1,31.6,–,"0.206 µM [rising, partial curve, poor fit]"
CCn1nc([N+](=O)[O-])c(C(C#N)c2nc3ccccc3n2C)c(Cl)c1=O (stereo unspecified),–,"13 µM [rising, single point]",–
C/C(=N\Nc1nc(C)cc(-c2ccccc2)n1)c1ccc(F)cc1,6.47,–,–
CC(CC(=O)Nc1ccccc1C(F)(F)F)c1ccccc1 (stereo unspecified),3.76,–,"0.731 µM [rising, full curve, poor fit]"
COc1cccc(/C=N/Nc2nnc(C)n2N)c1OCc1ccccc1Cl,-34.7,"29.1 µM [falling, single point]",–
COC(=O)C1=CO[C@@H](O[C@@H]2O[C@H](CO)[C@@H](O)[C@H](O)[C@H]2O)[C@H]2[C@@H]1C(=O)C[C@@H]2C,-8.78,"0.146 µM [rising, full curve, poor fit]",–
Cc1ccc(/C(O)=C2\C(=O)C(=O)N(c3cc(C)on3)C2c2cccc(Cl)c2)cc1 (stereo unspecified),-22.9,"29.1 µM [falling, partial curve]",–
O=S(=O)(NCC1CCCO1)c1ccc(S(=O)(=O)N(Cc2ccc(F)cc2)Cc2ccccn2)cc1 (stereo unspecified),16.4,"3.26 µM [falling, partial curve]",–
O=C(O)c1ccccc1NC(=O)c1ccccc1-c1ccccc1C(=O)O,-6.08,"20.6 µM [rising, partial curve, poor fit]",–
CN1CCc2c(sc3c2c(=O)n(-c2ccccc2)c2n[nH]c(=S)n32)C1,21.7,"23.1 µM [falling, single point]",–
CCc1nnc(NC(=O)CSc2nc(-c3ccccc3)cc(-c3ccc(OC)cc3)c2C#N)s1,115,"1.64 µM [rising, partial curve, poor fit]","16.4 µM [rising, partial curve]"

# Exported with tabs: part of the list above
Compound	cell number change [%]	AC50 [1]	AC50 [2]
COc1nc(-c2ccccc2)ccc1-c1noc(COc2ccccc2)n1	77.1	3.66 µM [rising, partial curve]	29.1 µM [rising, single point]
Cc1ccccc1NC(=O)NCc1ccco1	31.6	–	0.206 µM [rising, partial curve, poor fit]
CN1CCc2c(sc3c2c(=O)n(-c2ccccc2)c2n[nH]c(=S)n32)C1	21.7	23.1 µM [falling, single point]	–

# (continued)

Compound,cell number change [%],AC50 [1],AC50 [2]
CCc1ccccc1NC(=O)CN1CCC(NC(=O)COC)CC1,-72.4,"18.4 µM [falling, partial curve]","18.4 µM [falling, single point]"
COc1cccc(NC(=O)CNC(=O)c2cccs2)c1,54.6,–,"29.1 µM [rising, single point]"
COc1ccc(F)cc1S(=O)(=O)N1CCCC(C)C1 (stereo unspecified),23.3,"23.1 µM [falling, partial curve]",–
COc1ccccc1N1CC(C(=O)Nc2cccc(C(=O)O)c2)CC1=O (stereo unspecified),–,"5.8 µM [falling, partial curve]",–
O=C1N(Cc2ccc3c(c2)OCO3)c2ccccc2C1(O)c1c[nH]c2ccccc12 (stereo unspecified),24.1,"6.51 µM [rising, partial curve, poor fit]","0.259 µM [rising, full curve, poor fit]"
COc1ccccc1-c1cc(C(F)(F)F)nc(NCc2cccs2)n1,-1.01,–,–
COc1ccc(C(c2oc(CO)cc(=O)c2O)c2oc(CO)cc(=O)c2O)cc1OC,0.113,"1.16 µM [falling, full curve, poor fit]",–
CCOc1ccc(CNC23CN4CN(CN(C4)C2)C3)cc1,8.12,–,–
Cc1nc(/N=C\c2ccc(N(C)C)cc2)sc1C,-14.1,"0.92 µM [rising, full curve, poor fit]",–
COc1ccc2c(CC(=O)Nc3ncc(C)s3)coc2c1,40.3,–,"11.6 µM [rising, partial curve, poor fit]"
CCc1nnc(NC(=O)CSc2nc(C)cs2)s1,23.7,–,–
CCOC(=O)C(C)Sc1ncnc2c1nnn2-c1ccc(F)cc1 (stereo unspecified),-31.8,"29.1 µM [falling, single point]","1.64 µM [falling, full curve]"
CCC(Oc1ccc2c(=O)c(-c3ccccc3OC)coc2c1)C(=O)OCc1ccccc1 (stereo unspecified),-40.4,–,"3.66 µM [falling, full curve]"
Cc1ccc(S(=O)(=O)NCCn2nc(C)nc2C)cc1,10.5,–,–
COCc1cc(=O)n2[nH]c(-c3ccc(C)cc3)cc2n1,-76.4,"5.17 µM [falling, single point]","25.9 µM [falling, single point]"
Cc1cc(OCC(=O)NCCCn2ccnc2)c2c(C)c(C)c(=O)oc2c1,–,"0.731 µM [falling, full curve, poor fit]",–
CCn1c(=O)c2ccccc2n(Cc2cccc(C)c2)c1=O,26.4,"11.6 µM [rising, partial curve]",–
Cc1nc(NC(=O)/C=C/c2ccccc2)n[nH]1,-41.3,"25.9 µM [falling, single point]","20.6 µM [falling, single point]"
COc1ccccc1C(=O)Nc1ccc(NC(=O)c2ccco2)c(C)c1,-10.8,"0.058 µM [falling, full curve, poor fit]",–
Cc1ccc(C)c(NC(=O)CN(C)C(=O)c2cccc(N3C(=O)CCC3=O)c2)c1,150,"29.1 µM [rising, single point]","18.4 µM [rising, partial curve]"

# In the list so far, two have a CF3 group.
Compound,cell number change [%],AC50 [1],AC50 [2]
CC(CC(=O)Nc1ccccc1C(F)(F)F)c1ccccc1 (stereo unspecified),3.76,–,"0.731 µM [rising, full curve, poor fit]"
COc1ccccc1-c1cc(C(F)(F)F)nc(NCc2cccs2)n1,-1.01,–,–
